# Data published in patent publication US20060252916A1 (ELI LILLY AND COMPANY, priority 2002, published 2006).
# Experiments:
# [1] = general procedure: Boc solid-phase peptide synthesis; mbha-resin (Advanced ChemTech); symmetric anhydride and HOBt activated double couplings; conditions: whole synthesis, scale of the general procedure 0.43 mmole
# peptide synthesis = conditions: whole synthesis
Substance,final HPLC purity [1],final purity (method not given) (peptide synthesis)
HVEGTFTSDVSSYLEEQAAKEFIAWLIKGRGC(SSO3)-amide,approximate purity of 90%,
HVEGTFTSDVSSYLEEQAAKEFIAWLIKGRGK[3-(2-pyridyldithio)propanamide]-amide,,approximately 95%
